Measured values from PubChem BioAssay AID540276 (National Center for Advancing Translational Sciences (NCATS), 2011).
About 5,400 (1.8%) of roughly 300,000 compounds were called active. The inconclusive results got no clear call from the source; some entries with a clear call stand among them for comparison. The call rests on the fitted dose curve; tested in HEK293 cells. Where the call is inconclusive, the potency comes from a doubtful curve fit.

Assay: qHTS for inhibitors of binding or entry into cells for Marburg Virus
Conditions: Marburg virus pseudotyped entry inhibition, cell reporter; series mostly up to 37.8 µM
Potency means the concentration at half of the fitted maximal effect.

| SMILES | Potency |
| --- | --- |
| CCN(CC)c1ccc(NC(=O)c2cccc(C)c2)cc1S(=O)(=O)Nc1ccccc1OC | inconclusive: 1.58 µM [inhibitor, full curve, poor fit] |
| CC1CC(C)(C)NC(=S)N1CCCC(=O)Nc1ccc(Br)cc1 (stereo not drawn) | inconclusive: 7.08 µM [inhibitor, partial curve, poor fit] |
| Cc1ccccc1-n1nc2c(c1NC(=O)c1c(-c3ccccc3Cl)noc1C)CSC2 | inconclusive: 5.8 µM [inhibitor, partial curve] |
| COc1cccc(O)c1CN1CCCC(C(=O)c2cccc(C(F)(F)F)c2)C1 (stereo not drawn) | inconclusive: 12.6 µM [inhibitor, single point] |
| Cc1cccc2cc(CN(Cc3ccc(F)cc3)C(=O)N3CCOCC3)c(=O)[nH]c12 | inconclusive: 29.1 µM [inhibitor, single point] |
| O=[N+]([O-])c1ccc(CN2CCN(c3nc4ccccc4s3)CC2)cc1 | inactive |
| COc1cc(/C=C/C(=O)c2cccc([N+](=O)[O-])c2)cc(OC)c1OC | inconclusive: 35.5 µM [inhibitor, single point] |
| CN(c1ccccc1)S(=O)(=O)c1cccc(NC(=O)c2cc(=O)c3ccccc3o2)c1 | active: 12.6 µM |
| CN(C)CC(C(=O)c1ccccc1)c1ccccc1 (stereo not drawn) | active: 6.31 µM |
| COc1ccc2c(c1OC)C(=O)O[C@@H]2[C@H]1c2c(cc3c(c2OC)OCO3)CCN1C | inconclusive: 11.6 µM [inhibitor, partial curve, poor fit] |
| O=C(Cc1ccccc1)NN=C1CCCC1 | inactive |
| CCOC(=O)C1=C(CS(=O)(=O)c2cccc(C(F)(F)F)c2)NC(=O)NC1c1cccc(OC)c1 (stereo not drawn) | inconclusive: 35.5 µM [inhibitor, single point] |
| CCC(C(=O)Nc1cc(Cl)ccc1OC)n1nc(-c2ccccc2)ccc1=O (stereo not drawn) | inactive |
| CC1(C)CC2(CC(c3ccccc3F)c3cc(Cl)c(O)cc3O2)NC(=S)N1 (stereo not drawn) | inconclusive: 17.8 µM [inhibitor, single point] |
| Cc1ccc(SCc2nc3ccccc3[nH]2)cc1 | inconclusive: 13 µM [inhibitor, single point] |
| COc1ccc(-c2cc3nc(C)cc(C)n3n2)cc1 | inconclusive: 0.326 µM [activator, full curve] |
| CCOC(=O)C1=C(COC(=O)COc2ccccc2C=O)NC(=O)NC1C (stereo not drawn) | inconclusive: 3.16 µM [inhibitor, single point] |
| CCN(CC)CCCn1c2c(c(SCC(=O)Nc3ccc4c(c3)OCO4)nc1=O)CCC2 | inconclusive: 20 µM [inhibitor, partial curve, poor fit] |

Reformatted with tabs: two of the compounds above.
SMILES	Potency
CC1(C)CC2(CC(c3ccccc3F)c3cc(Cl)c(O)cc3O2)NC(=S)N1 (stereo not drawn)	inconclusive: 17.8 µM [inhibitor, single point]
Cc1ccc(SCc2nc3ccccc3[nH]2)cc1	inconclusive: 13 µM [inhibitor, single point]
